Article PMC9197408
No constants are given. Whether binding was seen depends on the method and setting. In cells and extracts the contact can be indirect. Some results given as binding are weak or reduced against the parent protein; the word gives no strength.

Protein sequences, listed by entry. Tags and fused reporters are not part of them. Lines headed by an entry give the natural chain unless they say otherwise; changes in a name come on top. Chains listed by the source or under a name are the forms on record and can include a tag or linker.
UniProt Q9Z2X8: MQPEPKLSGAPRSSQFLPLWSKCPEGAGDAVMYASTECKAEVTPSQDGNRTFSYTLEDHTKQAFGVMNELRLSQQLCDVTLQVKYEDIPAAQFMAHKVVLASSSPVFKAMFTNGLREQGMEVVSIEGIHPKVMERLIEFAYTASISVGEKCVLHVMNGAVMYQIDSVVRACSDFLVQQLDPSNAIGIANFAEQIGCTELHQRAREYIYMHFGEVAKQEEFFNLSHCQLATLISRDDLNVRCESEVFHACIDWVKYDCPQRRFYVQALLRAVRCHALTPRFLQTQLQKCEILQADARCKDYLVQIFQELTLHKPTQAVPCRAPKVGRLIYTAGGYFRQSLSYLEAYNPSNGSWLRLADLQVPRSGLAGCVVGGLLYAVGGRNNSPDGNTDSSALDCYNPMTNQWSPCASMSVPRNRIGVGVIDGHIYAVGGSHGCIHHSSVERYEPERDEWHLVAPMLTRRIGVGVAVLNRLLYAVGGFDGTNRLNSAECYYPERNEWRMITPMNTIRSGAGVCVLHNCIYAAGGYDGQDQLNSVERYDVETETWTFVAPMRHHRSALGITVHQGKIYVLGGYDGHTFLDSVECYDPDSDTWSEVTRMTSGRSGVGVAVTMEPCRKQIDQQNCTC
His‐Keap1 SQ/AA (Q9Z2X8, form named): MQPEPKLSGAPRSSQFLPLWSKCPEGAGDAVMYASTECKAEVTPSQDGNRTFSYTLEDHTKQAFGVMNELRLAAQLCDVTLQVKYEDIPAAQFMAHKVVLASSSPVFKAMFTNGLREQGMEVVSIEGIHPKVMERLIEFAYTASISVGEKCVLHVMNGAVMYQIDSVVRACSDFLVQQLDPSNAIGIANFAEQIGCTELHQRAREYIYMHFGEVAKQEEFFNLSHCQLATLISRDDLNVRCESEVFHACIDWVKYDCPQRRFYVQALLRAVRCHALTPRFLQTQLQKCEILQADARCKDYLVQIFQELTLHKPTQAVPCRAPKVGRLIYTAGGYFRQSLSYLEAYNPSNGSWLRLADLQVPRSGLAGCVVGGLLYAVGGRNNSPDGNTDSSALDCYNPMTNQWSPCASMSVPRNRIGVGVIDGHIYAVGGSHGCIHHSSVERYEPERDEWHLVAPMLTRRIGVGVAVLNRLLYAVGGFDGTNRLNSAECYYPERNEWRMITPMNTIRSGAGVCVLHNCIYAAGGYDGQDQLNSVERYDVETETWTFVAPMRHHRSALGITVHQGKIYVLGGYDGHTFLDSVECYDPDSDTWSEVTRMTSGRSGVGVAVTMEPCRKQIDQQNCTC
His‐Keap1 NE/AA (Q9Z2X8, form named): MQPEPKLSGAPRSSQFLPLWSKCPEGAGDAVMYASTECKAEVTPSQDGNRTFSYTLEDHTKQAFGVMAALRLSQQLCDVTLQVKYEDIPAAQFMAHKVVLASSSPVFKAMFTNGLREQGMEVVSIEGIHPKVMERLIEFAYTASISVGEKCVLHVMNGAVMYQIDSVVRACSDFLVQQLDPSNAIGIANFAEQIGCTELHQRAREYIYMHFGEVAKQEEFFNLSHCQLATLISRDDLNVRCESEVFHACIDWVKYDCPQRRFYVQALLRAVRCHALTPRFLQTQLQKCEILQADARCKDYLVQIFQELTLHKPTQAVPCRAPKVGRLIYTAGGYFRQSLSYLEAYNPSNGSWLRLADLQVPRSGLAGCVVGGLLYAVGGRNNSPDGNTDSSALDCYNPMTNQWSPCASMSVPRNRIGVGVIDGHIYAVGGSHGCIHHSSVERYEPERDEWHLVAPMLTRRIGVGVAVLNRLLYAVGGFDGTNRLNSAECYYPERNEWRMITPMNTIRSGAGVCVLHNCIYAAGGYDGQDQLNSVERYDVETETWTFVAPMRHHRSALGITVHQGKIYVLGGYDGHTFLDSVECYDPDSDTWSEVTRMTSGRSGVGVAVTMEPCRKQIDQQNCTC
UniProt P11142: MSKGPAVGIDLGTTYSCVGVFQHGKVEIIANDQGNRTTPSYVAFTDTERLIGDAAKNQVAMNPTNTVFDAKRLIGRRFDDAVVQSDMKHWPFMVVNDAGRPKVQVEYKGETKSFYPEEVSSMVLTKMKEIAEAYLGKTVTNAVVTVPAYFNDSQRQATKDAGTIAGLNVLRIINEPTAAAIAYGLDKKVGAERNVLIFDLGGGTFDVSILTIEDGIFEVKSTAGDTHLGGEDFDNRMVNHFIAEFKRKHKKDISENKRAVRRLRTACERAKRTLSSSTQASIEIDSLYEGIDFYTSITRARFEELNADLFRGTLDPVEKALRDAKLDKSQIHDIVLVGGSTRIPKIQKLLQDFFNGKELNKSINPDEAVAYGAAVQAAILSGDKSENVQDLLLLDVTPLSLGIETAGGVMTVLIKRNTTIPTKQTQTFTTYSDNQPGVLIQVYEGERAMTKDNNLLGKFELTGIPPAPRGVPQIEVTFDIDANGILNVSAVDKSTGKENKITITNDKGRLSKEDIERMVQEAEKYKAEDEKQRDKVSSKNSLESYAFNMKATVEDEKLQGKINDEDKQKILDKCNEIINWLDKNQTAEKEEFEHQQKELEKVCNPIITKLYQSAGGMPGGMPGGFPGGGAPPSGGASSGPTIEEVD

Assays:
Experiment in all cases: co-IP; HEK293T cells transfected with wild-type or mutated His-Keap1; IP anti-His, immunoblot with indicated antibodies (Hsc70)
His‐Keap1 SQ/AA = His‐Keap1 SQ/AA (UniProt Q9Z2X8)
His‐Keap1 NE/AA = His‐Keap1 NE/AA (UniProt Q9Z2X8)
[1] = biological target: His‐Keap1 wild‐type (expressed in HEK293T cells) (UniProt Q9Z2X8)

Measured: binding

Hsc70, endogenous in HEK293T cells (from UniProt P11142 1-646)
binds: all assays above
